These are yes or no findings as the source states them, for the method shown. Some entries that bind do so weakly or less than the wild type.
Target: Erwinia chrysanthemi ligand-gated ion channel (ELIC), wild type (Erwinia chrysanthemi) (UniProt P0C7B7)
Assay: cryo-EM structure; single particle cryo-EM of purified ELIC in MSP1E3D1 nanodiscs (2:1:1 POPC:POPE:POPG or POPC), apo or with 10 mM cysteamine; 10 mM HEPES, 100 mM NaCl, pH 7.5; C5 symmetry used in 3D classification; homopentamer; both purified

By UniProt entry, the sequences of proteins in these tests, tags left out.
UniProt P0C7B7: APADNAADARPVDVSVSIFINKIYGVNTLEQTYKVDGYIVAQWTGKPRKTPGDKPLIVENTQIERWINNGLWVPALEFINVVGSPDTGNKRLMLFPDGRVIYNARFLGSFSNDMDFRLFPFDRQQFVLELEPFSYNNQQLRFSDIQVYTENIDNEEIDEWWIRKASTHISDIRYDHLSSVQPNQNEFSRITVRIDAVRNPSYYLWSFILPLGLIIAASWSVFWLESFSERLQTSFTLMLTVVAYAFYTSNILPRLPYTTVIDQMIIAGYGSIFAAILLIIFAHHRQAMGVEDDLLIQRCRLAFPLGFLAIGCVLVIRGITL

binding: binds
Substance: Erwinia chrysanthemi ligand-gated ion channel (ELIC), wild type (from UniProt P0C7B7 1-321)

Source: PMC9668969 (Nature Communications, 2022)
